Experimental data from patent US8173668B1, “Use of non-peptidic bradykinin receptor agonists to treat ocular hypertension and glaucoma” (Alcon Research, Ltd., priority 2007, dated 2012).

Test system: ocular hypertensive eyes of ketamine-sedated cynomolgus monkeys
Test: Aqueous humor dynamics (fluorophotometry, tonography) in ketamine-sedated cynomolgus monkeys
Format: in vivo
Details: Treatment Day, Hypertensive Eye OS; one drop of 30 μl 0.01% the day before; mean ± SD
Excerpt: Methods used in this Example were described by Yablonski et al. Invest Ophthalmol V is Sci 1987; 28:2076-2082; Hayashi et al. Exp Eye Res 1989; 48:621-625; Mäepea et al. Exp Eye Res 1989; 49:645-663, and as below:
Twelve female cynomolgus monkeys between the ages of 5 and 8 years were included in the study. All had unilateral laser treatment to the trabecular meshwork of the left eye. Lasering had been done between 2 and 4 years before the study.
Measurements were made on baseline day and after AL-42205-01 (FR-190997) treatment to both eyes. […] Fifteen hours prior to each study day, IOP1 was measured with a pneumatonometer (Classic 30, Xomed, Jacksonville, Fla.) after topical application of proparacaine HCl, 0.13%. […] The fluorescence of the cornea and anterior chamber were measured in duplicate with a scanning fluorophotometer (Fluorotron, OcuMetrics, Palo Alto, Calif.). […]
After the fourth set of scans and another IOP measurement (IOP3), an intramuscular injection of acetazolamide (12-20 mg/kg) was administered to reduce IOP by reducing aqueous flow. […] Fluorophotometric outflow facility (Cfl) was calculated as the ratio of the change in aqueous flow to the change in IOP. Uveoscleral outflow (Fus) was calculated by the equation Fus=Fa−Cfl (IOP3−Pev) where Pev is the episcleral venous pressure. […]

SMILES: CNC(=O)c1ccc(/C=C/C(=O)NCC(=O)N(C)c2ccc(Cl)c(COc3cccc4c(OCc5ccccn5)cc(C)nc34)c2Cl)cc1 [FR-190997]
- ACvol, anterior chamber volume: 79.8 ± 9.2 µL
- CCT, central cornea thickness: 0.48 ± 0.03 mm
